This is an account of results in article PMC12148038, “Enhancement of CEP215 dynamics for spindle pole assembly during mitosis” (Journal of Cell Science, 2025).

Chains of the proteins cited; added tags and fusions are not shown.
UniProt Q8TEP8: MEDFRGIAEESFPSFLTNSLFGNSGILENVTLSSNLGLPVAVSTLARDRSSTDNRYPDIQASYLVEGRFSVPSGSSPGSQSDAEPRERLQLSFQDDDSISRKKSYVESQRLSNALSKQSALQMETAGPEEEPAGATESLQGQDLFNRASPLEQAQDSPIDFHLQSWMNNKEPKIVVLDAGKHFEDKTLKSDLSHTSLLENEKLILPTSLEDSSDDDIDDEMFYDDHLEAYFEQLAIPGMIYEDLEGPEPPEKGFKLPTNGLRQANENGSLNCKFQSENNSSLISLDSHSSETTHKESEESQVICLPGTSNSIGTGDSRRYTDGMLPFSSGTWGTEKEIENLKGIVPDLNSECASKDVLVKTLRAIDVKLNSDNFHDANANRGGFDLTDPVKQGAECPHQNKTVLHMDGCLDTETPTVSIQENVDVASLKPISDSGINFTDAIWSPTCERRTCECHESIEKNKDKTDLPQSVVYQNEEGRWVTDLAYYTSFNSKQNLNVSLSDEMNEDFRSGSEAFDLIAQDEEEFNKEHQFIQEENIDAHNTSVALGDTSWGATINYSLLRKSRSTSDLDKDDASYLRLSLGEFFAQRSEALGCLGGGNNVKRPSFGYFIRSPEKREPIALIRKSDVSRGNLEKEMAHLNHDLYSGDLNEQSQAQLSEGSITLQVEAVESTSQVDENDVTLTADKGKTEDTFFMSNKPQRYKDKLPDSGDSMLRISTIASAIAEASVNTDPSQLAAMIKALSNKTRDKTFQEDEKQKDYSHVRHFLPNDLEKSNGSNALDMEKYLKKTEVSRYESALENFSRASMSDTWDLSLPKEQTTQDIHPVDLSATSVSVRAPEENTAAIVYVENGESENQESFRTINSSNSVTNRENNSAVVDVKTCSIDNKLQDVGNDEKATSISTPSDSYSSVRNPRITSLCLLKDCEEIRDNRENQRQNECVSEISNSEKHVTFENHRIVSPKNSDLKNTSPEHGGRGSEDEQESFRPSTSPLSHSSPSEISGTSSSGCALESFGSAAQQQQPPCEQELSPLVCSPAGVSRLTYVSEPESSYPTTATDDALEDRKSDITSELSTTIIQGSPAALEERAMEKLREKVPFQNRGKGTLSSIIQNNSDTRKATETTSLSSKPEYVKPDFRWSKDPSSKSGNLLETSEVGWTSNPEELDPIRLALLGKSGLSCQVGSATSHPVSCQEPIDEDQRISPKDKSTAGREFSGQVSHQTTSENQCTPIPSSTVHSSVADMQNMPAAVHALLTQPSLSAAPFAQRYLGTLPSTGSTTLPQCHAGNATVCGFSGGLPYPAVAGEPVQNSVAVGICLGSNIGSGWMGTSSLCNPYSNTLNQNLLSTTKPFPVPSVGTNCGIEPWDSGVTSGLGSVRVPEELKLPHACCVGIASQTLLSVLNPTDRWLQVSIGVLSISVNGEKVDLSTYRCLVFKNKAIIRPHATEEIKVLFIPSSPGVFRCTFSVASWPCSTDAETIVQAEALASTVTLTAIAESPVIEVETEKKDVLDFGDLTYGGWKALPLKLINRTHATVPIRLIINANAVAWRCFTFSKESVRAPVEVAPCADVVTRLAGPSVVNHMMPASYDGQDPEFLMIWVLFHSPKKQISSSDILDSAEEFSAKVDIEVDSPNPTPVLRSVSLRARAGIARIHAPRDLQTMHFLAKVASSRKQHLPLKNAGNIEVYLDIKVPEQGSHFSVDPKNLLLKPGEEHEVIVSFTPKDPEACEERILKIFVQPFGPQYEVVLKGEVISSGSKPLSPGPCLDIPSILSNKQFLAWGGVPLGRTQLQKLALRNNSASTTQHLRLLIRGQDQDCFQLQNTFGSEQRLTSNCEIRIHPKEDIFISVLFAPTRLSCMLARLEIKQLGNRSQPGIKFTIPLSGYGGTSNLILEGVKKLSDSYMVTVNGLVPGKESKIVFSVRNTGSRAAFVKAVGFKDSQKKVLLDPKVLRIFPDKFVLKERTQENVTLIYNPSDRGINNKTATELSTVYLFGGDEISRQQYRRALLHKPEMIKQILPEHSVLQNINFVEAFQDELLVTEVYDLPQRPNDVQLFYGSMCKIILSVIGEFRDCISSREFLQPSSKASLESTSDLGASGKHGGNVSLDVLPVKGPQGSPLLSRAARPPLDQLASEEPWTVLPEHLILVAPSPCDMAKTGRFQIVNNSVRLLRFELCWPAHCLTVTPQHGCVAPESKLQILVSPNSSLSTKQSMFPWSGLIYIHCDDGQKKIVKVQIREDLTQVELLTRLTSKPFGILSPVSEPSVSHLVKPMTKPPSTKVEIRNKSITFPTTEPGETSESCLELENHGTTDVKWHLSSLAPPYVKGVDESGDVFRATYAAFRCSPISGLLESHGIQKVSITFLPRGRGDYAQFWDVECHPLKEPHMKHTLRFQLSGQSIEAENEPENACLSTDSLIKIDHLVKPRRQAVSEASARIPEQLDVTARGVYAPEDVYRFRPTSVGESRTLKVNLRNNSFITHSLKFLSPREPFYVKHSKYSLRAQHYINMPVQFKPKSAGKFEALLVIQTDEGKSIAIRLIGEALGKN

The target of one assay is FLAG–CEP215 ΔBS1 (human) (UniProt Q96SN8). As to the kind of experiment: co-IP; FLAG-tagged CEP215 construct transfected in 293T, anti-FLAG antibody on protein-A-Sepharose, lysis buffer 50 mM Tris-HCl pH 8.0, 5 mM EDTA, 150 mM NaCl, 0.5% Triton X-100, 4°C; blot for the endogenous partner.
For assay [1], the target named is T1, FLAG–CEP215^1661-1893 (human) (UniProt Q96SN8).
T1 sequence: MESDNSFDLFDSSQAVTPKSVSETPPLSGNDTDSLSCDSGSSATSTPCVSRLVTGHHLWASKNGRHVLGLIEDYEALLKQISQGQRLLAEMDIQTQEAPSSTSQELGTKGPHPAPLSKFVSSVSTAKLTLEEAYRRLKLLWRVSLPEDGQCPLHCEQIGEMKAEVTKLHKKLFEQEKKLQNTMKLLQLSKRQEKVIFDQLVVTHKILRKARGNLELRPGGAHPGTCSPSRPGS
As to the kind of experiment: co-IP; FLAG- and HA-tagged CEP215 fragments transiently expressed in 293T, anti-FLAG immunoprecipitation, blot with FLAG and HA antibodies.

No constants are given. Whether binding was seen depends on the method and setting. In cells and extracts the contact can be indirect. Some binding calls cover weakened binding; strength is not graded here. For some assays here: Tags and fused reporters may be left off the sequences shown.

With “endogenous CEP192 (from UniProt Q8TEP8 1-2537)”, in the assay with FLAG–CEP215 ΔBS1 (human), the binding entry is on record as “no binding”.

B1: MBP–CEP215^1661-1893 (domain or fragment, human, UniProt Q96SN8 1661-1893, looked up)
chain: T1 sequence
notes: Homodimer by SEC-MALS; calculated monomer mass with MBP 71.8 kDa; also called CEP215 fragment; source: bacterially expressed (pPROEX vector), purified (amylose column, SEC)
Regarding B1, the binding entry in assay [1] was “binds”.
